Assay results reported in patent US20210171652A1.
These are yes or no findings as the source states them, for the method shown. Some results given as binding are weak or reduced against the parent protein; the word gives no strength.

Sequences of proteins named here, by UniProt entry; tags and fusion partners are left off. A change or cut given only in a name is not applied to a line headed by its entry.
UniProt P18577: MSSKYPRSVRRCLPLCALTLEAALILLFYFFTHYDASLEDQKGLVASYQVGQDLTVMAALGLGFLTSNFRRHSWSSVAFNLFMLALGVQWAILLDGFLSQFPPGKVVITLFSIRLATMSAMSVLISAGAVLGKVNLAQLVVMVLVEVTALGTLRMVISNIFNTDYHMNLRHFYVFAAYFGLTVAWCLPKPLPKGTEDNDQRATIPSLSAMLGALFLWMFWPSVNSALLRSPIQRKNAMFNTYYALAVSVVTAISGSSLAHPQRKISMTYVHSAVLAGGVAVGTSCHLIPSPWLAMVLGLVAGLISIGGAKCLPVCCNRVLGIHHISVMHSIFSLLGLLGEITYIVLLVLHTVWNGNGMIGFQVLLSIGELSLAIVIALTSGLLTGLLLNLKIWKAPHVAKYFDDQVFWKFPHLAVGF

Target: KP3-17 (anti-Rh17), as used in Example 8
Assay: peptide competition, flow cytometry on human erythrocytes

binding: binds
Binder: LLVLHTVWNGNGMIG (peptide, UniProt P18577 346-360, looked up) [linear peptide corresponding to the 6th extracellular loop of human RhCE]
